This is an account of results in patent US20240285586A1, “METHODS FOR TREATING BACTERIAL CELL POPULATIONS” (THE HONG KONG POLYTECHNIC UNIVERSITY, priority 2021, published 2024).

SMILES strings stand for the structures. ≈ marks a conversion by molar mass, not a printed value.

In this assay the test system is E. coli K-12 BW25113. In words: Minimal inhibitory concentration, E. coli. It is filed as cell-based. To be noted: Escherichia coli, BW25113, read-out: minimum inhibitory concentration (MIC). The source says: Determination of minimal inhibitory concentrations (MICs).
Determination of Minimal Inhibitory Concentrations (MICs).

With `CC1(C)S[C@@H]2[C@H](NC(=O)[C@H](N)c3ccccc3)C(=O)N2[C@H]1C(=O)O` [ampicillin], the MIC worked out at 8 mg/L (≈ 22.9 µM).
